Results taken from doi:10.1101/2025.03.19.644201.
No constants are given. Whether binding was seen depends on the method and setting. Binding seen in cells or lysates may run through a third protein. Some binding calls cover weakened binding; strength is not graded here. Blank lines part the entries; values can stand above or below the molecule they belong to.

Sequences of proteins named here, by UniProt entry; tags and fusion partners are left off.
UniProt P35222: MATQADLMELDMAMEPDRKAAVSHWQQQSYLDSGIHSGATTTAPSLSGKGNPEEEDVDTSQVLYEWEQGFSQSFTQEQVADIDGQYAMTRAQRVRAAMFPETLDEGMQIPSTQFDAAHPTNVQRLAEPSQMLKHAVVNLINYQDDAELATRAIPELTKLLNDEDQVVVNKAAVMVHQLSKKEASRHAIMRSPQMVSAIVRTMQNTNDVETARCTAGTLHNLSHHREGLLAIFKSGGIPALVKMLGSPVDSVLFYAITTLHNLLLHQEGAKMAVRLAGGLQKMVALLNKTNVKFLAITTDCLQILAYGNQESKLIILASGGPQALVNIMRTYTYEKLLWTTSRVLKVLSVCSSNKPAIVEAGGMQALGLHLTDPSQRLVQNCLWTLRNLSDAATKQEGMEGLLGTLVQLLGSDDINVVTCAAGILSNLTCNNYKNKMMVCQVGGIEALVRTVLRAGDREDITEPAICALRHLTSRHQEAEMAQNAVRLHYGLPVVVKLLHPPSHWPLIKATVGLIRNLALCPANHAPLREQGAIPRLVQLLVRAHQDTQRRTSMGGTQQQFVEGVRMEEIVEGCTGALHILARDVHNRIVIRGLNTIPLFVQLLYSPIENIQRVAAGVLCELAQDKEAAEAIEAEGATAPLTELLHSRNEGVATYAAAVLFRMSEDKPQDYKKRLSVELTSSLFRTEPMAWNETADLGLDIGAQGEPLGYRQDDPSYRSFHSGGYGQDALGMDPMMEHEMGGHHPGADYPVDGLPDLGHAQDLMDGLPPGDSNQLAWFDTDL

How the values were obtained:
[1] = target: c-Jun (human (endogenous in J-pouch organoids)) (UniProt P05412); test: co-IP
[2] = target: T1, c-Jun (human (endogenous in J-pouch organoids)), P05412; test: co-IP; conditions: remark: other sources report otherwise
T1 chain: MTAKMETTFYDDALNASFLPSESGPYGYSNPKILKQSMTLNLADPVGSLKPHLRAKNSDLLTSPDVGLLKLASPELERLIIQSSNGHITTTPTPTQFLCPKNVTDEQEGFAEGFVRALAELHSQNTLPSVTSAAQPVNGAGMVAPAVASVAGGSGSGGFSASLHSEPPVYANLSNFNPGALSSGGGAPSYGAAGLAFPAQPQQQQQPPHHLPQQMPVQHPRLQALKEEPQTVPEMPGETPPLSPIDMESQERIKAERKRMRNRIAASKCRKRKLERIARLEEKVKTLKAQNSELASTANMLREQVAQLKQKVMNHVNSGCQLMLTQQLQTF

Molecule: β-catenin (from UniProt P35222 1-781)
binding [1]: binds

B1: FRA1 (protein, UniProt P15407 1-271)
chain: MFRDFGEPGPSSGNGGGYGGPAQPPAAAQAAQQKFHLVPSINTMSGSQELQWMVQPHFLGPSSYPRPLTYPQYSPPQPRPGVIRALGPPPGVRRRPCEQISPEEEERRRVRRERNKLAAAKCRNRRKELTDFLQAETDKLEDEKSGLQREIEELQKQKERLELVLEAHRPICKIPEGAKEGDTGSTSGTSSPPAPCRPVPCISLSPGPVLEPEALHTPTLMTTPSLTPFTPSLVFTYPSTPEPCASAHRKSSSSSGDPSSDPLGSPTLLAL
binding [1]: binds

Further lines, results first:

binding [1]: binds
B2: BATF (protein, UniProt Q16520 1-125)
chain: MPHSSDSSDSSFSRSPPPGKQDSSDDVRRVQRREKNRIAAQKSRQRQTQKADTLHLESEDLEKQNAALRKEIKQLTEELKYFTSVLNSHEPLCSVLAASTPSPPEVVYSAHAFHQPHVSSPRFQP

binding [2]: binds
B3: JUNB, P17275 1-347 (protein)
chain: MCTKMEQPFYHDDSYTATGYGRAPGGLSLHDYKLLKPSLAVNLADPYRSLKAPGARGPGPEGGGGGSYFSGQGSDTGASLKLASSELERLIVPNSNGVITTTPTPPGQYFYPRGGGSGGGAGGAGGGVTEEQEGFADGFVKALDDLHKMNHVTPPNVSLGATGGPPAGPGGVYAGPEPPPVYTNLSSYSPASASSGGAGAAVGTGSSYPTTTISYLPHAPPFAGGHPAQLGLGRGASTFKEEPQTVPEARSRDATPPVSPINMEDQERIKVERKRLRNRLAATKCRKRKLERIARLEDKVKTLKAENAGLSSTAGLLREQVAQLKQKVMTHVSNGCQLLLGVKGHAF
